{"source": "patent US10308685B2", "about": "“Inhibitory peptides of viral infection” (UNIVERSITY OF TENNESSEE RESEARCH FOUNDATION, priority 2014, dated 2019)", "key": {"[1]": {"test": "Self-aggregation of peptide (observation)", "format": "physicochemical"}, "MCMV": {"system": "MCMV", "format": "cell-based, Murine Cytomegalovirus", "conditions": "500 μg/ml screen, FIG. 1(A)", "method": "Murine Cytomegalovirus (MCMV) RM4503 was cultured in vitro in MEF 10.1 cells. The virus stock was titered using plaque assay (described below) and stored at −80° C. Human Cytomegalovirus (HCMV) TB40/E was obtained from (46, 47) and cultures in vitro in HFF cells. The virus stock was titered using plaque assay and stored at −80° C. HSV-1 and HSV-2 were cultured in vitro in VERO cells. The virus stock was titered using plaque assay and stored at −80° C.\nPeptides were screened for their ability to reduce viral infection using a plaque reduction assay. Cells were cultured in 12-well (VERO) or 24-well culture plates (MEF 10.1 and HFF). When the cells reached ˜80% confluence the media was removed and the cells washed once with PBS before addition of peptide. As a control, cells were incubated with PBS alone. After a 30 min of incubation with peptide in PBS, the virus was added and incubated for another 90 min (HSV and HCMV) or 60 min (MCMV). Following virus incubation the peptide/virus mixture was removed and replaced with 0.75% carboxy-methyl cellulose (Sigma Aldrich, St. Louis, Mo.)+complete media (CMC) or 0.5% agarose (Lonza, Rockland, Me.) in complete media. […] Plaques were counted manually and data analyzed using Prism 5.0 (GraphPad Software, La Jolla, Calif.). Data were expressed as % plaques relative to the average number of plaques in the PBS-treated wells. […]"}}, "note": "Part of at least one peptide drawing is inferred or uncertain, most often the ends. Where no end group is shown, it is not given here.", "data": [{"sequence": "CGGYSKAQKAQAKQAKQAQKAQKAQAKQAKQ [CGGY-p5]", "values": [{"measurement": "self-aggregation", "setting": "[1]", "value": "prone to self-aggregation"}, {"measurement": "enhancement of inhibition of MCMV infectivity compared to the GGGY N-terminal variant", "setting": "MCMV", "value": 2, "unit": "fold"}]}]}
